# Results of single-concentration screens

From ChEMBL document CHEMBL3988442, “University of Dundee, Small-Polar-MMV Screening Library” (2021).

T. brucei: 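Whole-parasite assay of Trypanosoma brucei over 72 hours; the read-out is not stated. Concentration: 30 µM. Direction is inferred from retests: higher values go with stronger inhibition. Values scatter widely below zero; nearly all retest evidence comes from the higher of the two concentrations used. Size under these conditions: about 64,000 compounds, about 940 of them at 50% or above in at least one test.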
Toxoplasma: 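Assay of Toxoplasma gondii numbers, read through their beta-galactosidase reporter with a colour substrate. Compounds at 10 µM. The record gives no direction; the compounds picked for IC50 retests had high values, so higher reads as fewer parasites. About 67,000 compounds were tested under these conditions; 0.38% (about 260) showed 50% or more at least once.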

The filed quantity is “Percent Effect” (%).
How 0% and 100% were set is not recorded. Most values in the screen are low, and negative values occur.
This is an unselected part of the compounds tested.
A dash means the value is not listed here; it may have been measured.

SMILES,T. brucei,Toxoplasma
COc1ccc(C)cc1CCNS(C)(=O)=O,-28.93,15.9
COCCC(=O)N1CCN(CC2CC2)c2ccccc21,5.398,-4.877
O=C(NCc1ccccc1)N1CCc2ncnc(NC3CC3)c2CC1,-64.51,20.49
O=C(O)C(F)(F)F.[H][C@]12CCN(c3ccccn3)[C@@]1([H])CCC(=O)N2CC1CCOCC1,-80.44,-6.968
COc1ccc(C(=O)NS(=O)(=O)c2cccc(C#N)c2)cc1,-4.724,-5.111
COC(=O)CCn1ccc(=O)c2cc(F)ccc21,-7.759,-29.6
CCCc1nc(NCCCO)c2c(n1)c(C)nn2CC,38.76,3.108
CCN1CCNC(=O)C12CCN(C(=O)c1ccccn1)CC2,-20.95,-3.541
COC1CCN(C(=O)COC(C)=O)CC(=O)N(C)c2ccccc21 (centres unmarked),-33,4.054
CN(C)C(=O)CN1CCC2(CCCN(Cc3cccn3C)C2)C1=O.O=C(O)C(F)(F)F (centres unmarked),-6.735,1.165
Cc1ccccc1CNC(=O)c1ccccc1-n1cc(CN)cn1,16.74,8.036
Clc1cccnc1N1CCC(C2CCN(Cc3cccnc3)CC2)C1 (centres unmarked),-20.2,-0.1142
COc1cc2c(cc1-c1nc3c(cnn3C)[nH]1)OCO2,-5.484,3.062
COCCn1ccnc1CN1CCc2[nH]cnc2C1c1cnn(C)c1C (centres unmarked),-11.03,-
O=C(N1CCC(Oc2ccncc2)C1)C1(c2ccccc2F)CC1 (centres unmarked),-19.6,3.258
CCN(C)c1ncnc2c1CCN(C(=O)[C@H]1CCCO1)CC2,-39.9,4.039
CN(C)C1CCN(C(=O)C2SCCc3ccccc32)CC1 (centres unmarked),2.998,-3.662
COc1cccc(NC(=O)CNc2ccc(C(=O)N(C)C)c(Cl)c2)c1,11.11,6.679
O=C(NCc1cccnc1OCC(F)(F)F)N1CCOCC1,-62.54,4.469
O=C1NCCN2CCN(Cc3ccc(Cl)c(Cl)c3)CC12 (centres unmarked),-2.157,-2.727
CCc1cc(CNC(=O)N(C2CC2)C(C)c2ccco2)on1 (centres unmarked),-25.72,6.029
CCCN1CCC(CC(=O)N2CCC(C(O)c3nccn3C)CC2)CC1 (centres unmarked),-10.63,2.727
COCCCC(=O)N(CCC(=O)O)Cc1ccc(F)c(F)c1,-54.73,-1.73
CNc1nnc(CCn2nc(C)c(Br)c2C)s1,-15.61,18.11
CC1(C)CN(C(=O)c2ccc3nncn3c2)CCS1,2.18,1.351
CCOc1ncccc1CNC(=O)c1c(C)oc(C)c1C,-,-12.16
Cc1nnc2n1CC(CNc1ncnc3ccccc13)CC2 (centres unmarked),-5.9,-12.15
CN(C)CCOc1ccccc1N1CCN(C(=O)c2ccoc2)CC1,-29.13,3.02
[H][C@@]12CCN(c3cnccn3)C[C@@]1(C(=O)O)CCCN2Cc1cnn(C)c1,-16.1,6.564
O=C(CCc1ccsc1)N1CCC(C(=O)O)(c2ccccc2)CC1,-17.64,3.333
O=C(NCCc1cccnc1)C1CCCN(Cc2ccco2)C1 (centres unmarked),-46.97,4.578
O=C(NCC(O)COc1cccc(F)c1)C1(c2ccc(F)cc2)CC1 (centres unmarked),-17.73,0.3245
COc1ccc(-c2nc(C3CCNCC3)cc3c2ncn3C)cc1.Cl.Cl,-59.85,22.23
COC1CCN(c2ccc(F)cc2CN(C)C(C)C(N)=O)CC1 (centres unmarked),-26.4,23.06
Cc1nc(O)cc(CN2CCC=C(CN(C)C(=O)c3ccco3)C2)n1,-6.273,-2.17
COCCNC(=O)C1CN(Cc2ccsc2)Cc2ccnn2C1 (centres unmarked),-32.51,19.53
Cc1ccccc1Oc1ncccc1CNC1CCC1,-13.32,2.377
Cn1cc(C(=O)N2CCC(c3ncc[nH]3)CC2)cn1,2.128,-16.42
O=C(C1CCC1)N1CCC2(COCc3cnc(N4CCOCC4)nc32)C1 (centres unmarked),-2.822,2.244
CN1CCCC(N2CCN(c3cc(C(F)(F)F)ccn3)CC2)C1 (centres unmarked),-33.63,10.27
CCOCCCNC(=O)c1cc(OC)c2ccoc2c1,-28.37,6.09
O=C(NCCCN1CCCC1=O)c1nc(-c2ccc3[nH]ccc3c2)no1,-20.45,4.701
COc1cccc2c1ccn2CCC(=O)N1CCCC(C(=O)O)C1 (centres unmarked),-31.78,1.357
Cc1cnc2n(c1=O)C(CC(=O)NCc1ccc(Cl)cc1)CS2 (centres unmarked),-18.59,-41.65
CCC(C)N(Cc1sccc1C)C(=O)c1ccc2cccnc2n1 (centres unmarked),-6.047,-9.037

5 of the entries, repeated:

SMILES,T. brucei,Toxoplasma
COC1CCN(C(=O)COC(C)=O)CC(=O)N(C)c2ccccc21 (centres unmarked),-33,4.054
COC1CCN(c2ccc(F)cc2CN(C)C(C)C(N)=O)CC1 (centres unmarked),-26.4,23.06
COc1ccc(C)cc1CCNS(C)(=O)=O,-28.93,15.9
CCN(C)c1ncnc2c1CCN(C(=O)[C@H]1CCCO1)CC2,-39.9,4.039
CCCN1CCC(CC(=O)N2CCC(C(O)c3nccn3C)CC2)CC1 (centres unmarked),-10.63,2.727